Data taken from publication PMC6251927.
These are yes or no findings as the source states them, for the method shown. In cells and extracts the contact can be indirect. Some binding calls cover weakened binding; strength is not graded here. For part of these data: Tags and fused reporters may be left off the sequences shown.

By UniProt entry, the sequences of proteins in these tests, tags left out.
UniProt Q9NFU0: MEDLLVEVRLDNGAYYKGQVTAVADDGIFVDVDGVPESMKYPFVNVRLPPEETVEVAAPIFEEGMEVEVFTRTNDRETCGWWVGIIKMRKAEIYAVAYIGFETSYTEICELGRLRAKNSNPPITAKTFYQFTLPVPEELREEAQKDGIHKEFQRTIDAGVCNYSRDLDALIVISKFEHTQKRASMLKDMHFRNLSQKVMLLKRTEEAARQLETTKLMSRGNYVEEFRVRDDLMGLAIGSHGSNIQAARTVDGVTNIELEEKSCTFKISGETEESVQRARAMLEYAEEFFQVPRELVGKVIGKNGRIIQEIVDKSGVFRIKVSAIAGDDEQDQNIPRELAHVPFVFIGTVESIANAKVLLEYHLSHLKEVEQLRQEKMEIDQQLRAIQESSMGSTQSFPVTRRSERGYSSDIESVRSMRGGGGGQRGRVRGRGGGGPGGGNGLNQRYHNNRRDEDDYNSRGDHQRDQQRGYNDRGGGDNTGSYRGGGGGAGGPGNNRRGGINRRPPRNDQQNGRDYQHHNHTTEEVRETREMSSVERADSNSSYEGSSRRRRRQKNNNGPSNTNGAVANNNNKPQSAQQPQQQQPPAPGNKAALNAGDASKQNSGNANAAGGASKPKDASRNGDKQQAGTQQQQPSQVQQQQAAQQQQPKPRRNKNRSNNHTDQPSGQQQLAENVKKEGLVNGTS
UniProt P19109: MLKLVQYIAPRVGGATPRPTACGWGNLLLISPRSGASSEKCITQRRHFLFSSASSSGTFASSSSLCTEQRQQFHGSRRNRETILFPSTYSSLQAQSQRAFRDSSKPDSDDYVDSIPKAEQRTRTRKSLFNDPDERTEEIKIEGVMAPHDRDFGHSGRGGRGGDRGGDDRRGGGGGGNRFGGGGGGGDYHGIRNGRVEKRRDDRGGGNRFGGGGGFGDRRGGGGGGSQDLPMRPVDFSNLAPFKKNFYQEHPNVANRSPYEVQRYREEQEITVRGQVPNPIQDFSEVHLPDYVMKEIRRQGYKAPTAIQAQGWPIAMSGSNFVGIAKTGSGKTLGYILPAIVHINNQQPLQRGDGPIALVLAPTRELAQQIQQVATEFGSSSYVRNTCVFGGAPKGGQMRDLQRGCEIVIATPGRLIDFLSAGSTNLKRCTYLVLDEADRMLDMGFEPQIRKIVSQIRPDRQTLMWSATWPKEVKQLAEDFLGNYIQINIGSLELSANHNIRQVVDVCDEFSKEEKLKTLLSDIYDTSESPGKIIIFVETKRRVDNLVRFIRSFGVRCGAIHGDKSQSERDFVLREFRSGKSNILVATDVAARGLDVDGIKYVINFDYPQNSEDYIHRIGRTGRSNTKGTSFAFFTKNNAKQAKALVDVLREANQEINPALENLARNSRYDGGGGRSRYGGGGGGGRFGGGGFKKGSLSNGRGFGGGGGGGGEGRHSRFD

T1: HA-tagged AGO2 (Drosophila) (UniProt Q9VUQ5)
T1 sequence: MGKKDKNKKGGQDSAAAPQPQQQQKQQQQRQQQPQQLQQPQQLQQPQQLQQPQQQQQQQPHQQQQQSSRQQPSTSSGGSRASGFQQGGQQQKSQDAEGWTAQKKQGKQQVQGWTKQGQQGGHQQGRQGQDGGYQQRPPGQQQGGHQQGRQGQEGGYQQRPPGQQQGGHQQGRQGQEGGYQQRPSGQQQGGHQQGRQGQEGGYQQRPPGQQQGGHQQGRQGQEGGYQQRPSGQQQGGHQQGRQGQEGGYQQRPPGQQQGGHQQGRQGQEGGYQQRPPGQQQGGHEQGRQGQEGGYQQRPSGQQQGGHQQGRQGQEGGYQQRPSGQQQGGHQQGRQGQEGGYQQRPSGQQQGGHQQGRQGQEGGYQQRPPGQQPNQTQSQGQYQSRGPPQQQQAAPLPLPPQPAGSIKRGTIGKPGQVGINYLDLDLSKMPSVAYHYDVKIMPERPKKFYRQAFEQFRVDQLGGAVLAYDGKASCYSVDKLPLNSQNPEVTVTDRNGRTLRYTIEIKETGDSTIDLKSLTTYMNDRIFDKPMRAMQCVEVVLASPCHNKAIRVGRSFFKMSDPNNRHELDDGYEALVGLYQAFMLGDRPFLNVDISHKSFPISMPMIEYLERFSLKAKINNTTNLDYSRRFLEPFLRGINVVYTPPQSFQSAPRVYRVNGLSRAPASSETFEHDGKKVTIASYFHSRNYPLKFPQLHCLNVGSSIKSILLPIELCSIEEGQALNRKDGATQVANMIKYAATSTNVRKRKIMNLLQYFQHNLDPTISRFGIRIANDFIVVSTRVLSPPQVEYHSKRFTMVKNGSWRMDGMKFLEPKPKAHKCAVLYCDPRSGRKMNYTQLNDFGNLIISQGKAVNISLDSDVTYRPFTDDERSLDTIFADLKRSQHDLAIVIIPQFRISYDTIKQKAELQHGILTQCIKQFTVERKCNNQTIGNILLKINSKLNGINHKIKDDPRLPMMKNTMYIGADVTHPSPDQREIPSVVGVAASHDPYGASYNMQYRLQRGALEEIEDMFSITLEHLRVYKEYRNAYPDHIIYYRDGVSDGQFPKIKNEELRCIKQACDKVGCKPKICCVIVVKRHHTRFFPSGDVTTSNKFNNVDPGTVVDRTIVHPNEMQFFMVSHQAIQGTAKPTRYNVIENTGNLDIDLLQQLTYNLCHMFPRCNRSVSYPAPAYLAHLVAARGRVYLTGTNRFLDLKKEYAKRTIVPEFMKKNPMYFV

T2: HA-tagged VIG (Drosophila) (UniProt Q9V426)
T2 sequence: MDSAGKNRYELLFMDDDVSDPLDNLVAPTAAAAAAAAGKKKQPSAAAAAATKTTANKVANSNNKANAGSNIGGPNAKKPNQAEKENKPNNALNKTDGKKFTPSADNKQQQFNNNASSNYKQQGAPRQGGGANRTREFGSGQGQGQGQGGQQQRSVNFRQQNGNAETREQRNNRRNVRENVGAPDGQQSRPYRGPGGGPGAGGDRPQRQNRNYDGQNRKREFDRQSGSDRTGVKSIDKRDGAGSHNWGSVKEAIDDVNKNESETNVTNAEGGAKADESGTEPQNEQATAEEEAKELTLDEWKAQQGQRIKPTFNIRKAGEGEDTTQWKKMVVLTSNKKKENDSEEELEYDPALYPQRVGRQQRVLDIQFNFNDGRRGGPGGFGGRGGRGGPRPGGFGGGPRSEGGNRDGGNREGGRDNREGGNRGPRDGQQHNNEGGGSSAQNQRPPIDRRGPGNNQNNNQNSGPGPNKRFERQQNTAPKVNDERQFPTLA

B1: Drosophila Top3β (Topoisomerase 3β) (enzyme, UniProt O96651 1-875)
chain: MKSVLMVAEKPSLAASLAGILSNGRCTAKRGTGNGCSTHEWTGNFRNEGSVHFRMTSVCGHVMSLDFNKKYNCWDKVDPIQLFGCATEKKETNPKQNMRKFLAHEARGCDYLVLWLDCDKEGENICFEVMDAVKHVINNVYSDQVTYRAHFSAITEKDIKKAMETLGHPNENEAKSVDARQELDLRIGCAFTRFQTKFFQDRYGDLDSSLISYGPCQTPTLGFCVKRHDDIQTFKPESFWHLQLLAGQPEVTLEWARGRVFKKDIAIMLLNRVKEHKKATVESVASKEAYKSKPQALNTVELMRICSSGLGIGPFQAMQIAERLYTQGYISYPRTETNQYPTNFDLPAVLHVLKPSADFGEEARSILGDIQTPRKGKDAGDHPPITPMKLGNRSDFDRDTWRVYEFICRHFMGTVSRDLKYRVTTAKLSVGMETFSCTASVLIDAGFTKVMTWSAFGKDEPQPPFVQGTQVAINDVRLIESQTGPPDYLTESELITLMEEHGIGTDASIPVHINNICQRNYVHIENGRKLMPTTLGIVLVHGYQKIDPELVLPTMRTEVERMLTLIAQGSANFQDVLRHAIKIFKLKFMYFVKNIDSMDALFEVSFSPLAESGKAHSRCGKCRRYMKYIQTKPARLHCSHCDETYALPIGNVKVYREFKCPLDDFDLLAFSTGVKGRSYPFCPYCYNHPPFSDMPHLGGCNTCTNANCPHSLNTLGISSCVECPTGVLVLDCTLAPTWKLGCNRCDVIINCFKGATKITVEEAKCQECGAQQVNVVYKSDKSKFKDGSEEKSGCIFCSADFSHLVEKHRAVASRPVRSGGGFRGGKAGRGGGGMGGAAFGSGGAVTAGGGPNAGGGVRGSRVAKDKMGQLASYFV

Columns and labels:
[1] = biological target: Drosophila FMRP (Drosophila (endogenous in S2 cells)) (UniProt Q9NFU0); test: co-IP; FMRP IP-Western from S2 cells inactivated of TDRD3 by CRISPR and control cells
[2] = biological target: T1, HA-tagged AGO2 (Drosophila); test: co-IP; HA antibody IP from S2 cells transfected with HA-tagged p68, VIG or AGO2, immunoblotting (reciprocal IP-Western)
[3] = biological target: T2, HA-tagged VIG (Drosophila); test: as above

Row | Molecule | binding [1] | binding [2] | binding [3]
1 | p68 RNA helicase (encoded by Rm62) (from UniProt P19109 1-719) (enzyme) | binds | – | –
2 | B1 | – | binds | binds
